# Experimental data reported in PMC10114425.
# Protein sequences, listed by entry. Tags and fused reporters are not part of them. Lines headed by an entry give the natural chain unless they say otherwise; changes in a name come on top.
# UniProt A6NJI1: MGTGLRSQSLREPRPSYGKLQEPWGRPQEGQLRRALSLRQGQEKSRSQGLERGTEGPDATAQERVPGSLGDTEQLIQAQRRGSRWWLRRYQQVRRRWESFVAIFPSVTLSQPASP
# UniProt P84092: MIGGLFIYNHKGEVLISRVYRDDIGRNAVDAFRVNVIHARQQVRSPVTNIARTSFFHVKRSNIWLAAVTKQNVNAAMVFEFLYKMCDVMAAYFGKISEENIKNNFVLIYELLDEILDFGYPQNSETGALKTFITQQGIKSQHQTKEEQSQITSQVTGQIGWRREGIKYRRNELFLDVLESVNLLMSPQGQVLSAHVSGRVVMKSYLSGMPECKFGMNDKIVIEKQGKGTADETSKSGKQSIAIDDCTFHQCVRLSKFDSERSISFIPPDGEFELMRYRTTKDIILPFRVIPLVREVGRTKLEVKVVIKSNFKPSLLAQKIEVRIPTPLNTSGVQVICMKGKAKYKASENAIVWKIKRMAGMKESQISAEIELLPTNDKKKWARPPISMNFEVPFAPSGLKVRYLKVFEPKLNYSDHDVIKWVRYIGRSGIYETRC
# UniProt Q96CW1: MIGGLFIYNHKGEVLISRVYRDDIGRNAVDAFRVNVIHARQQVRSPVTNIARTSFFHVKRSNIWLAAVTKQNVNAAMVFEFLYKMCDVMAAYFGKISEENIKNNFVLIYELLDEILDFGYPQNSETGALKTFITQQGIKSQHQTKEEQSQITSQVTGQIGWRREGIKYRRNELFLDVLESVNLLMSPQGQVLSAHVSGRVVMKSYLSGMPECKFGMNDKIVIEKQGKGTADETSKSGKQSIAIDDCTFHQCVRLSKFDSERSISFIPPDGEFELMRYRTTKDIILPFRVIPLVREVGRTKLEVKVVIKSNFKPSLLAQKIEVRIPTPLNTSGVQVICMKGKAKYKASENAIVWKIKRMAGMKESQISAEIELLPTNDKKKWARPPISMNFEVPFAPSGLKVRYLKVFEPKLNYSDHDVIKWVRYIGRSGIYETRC
# These are yes or no findings as the source states them, for the method shown. Binding seen in cells or lysates may run through a third protein.
# What was measured:
# mEmerald-FACI-ΔDxxxLI = mEmerald-FACI-ΔDxxxLI (UniProt A6NJI1); experiment: co-IP; HepG2 cells transfected with mEmerald-FACI or mEmerald-FACI-ΔDxxxLI; NP-40 lysis buffer; precipitated with anti-GFP, blotted with anti-GFP and anti-AP2M1
# mCherry-AP2M1 = mCherry-AP2M1 (UniProt P84092); experiment: co-IP; AML12 cells expressing mCherry-AP2M1, transfected with mEmerald-FACI or mEmerald-FACI-ΔDxxxLI; precipitated with anti-mCherry, blotted with the indicated antibodies (Fig. S4)
binding (mEmerald-FACI-ΔDxxxLI),binding (mCherry-AP2M1),Substance
no binding,,endogenous AP2M1 (from UniProt Q96CW1 1-435)
,no binding,mEmerald-FACI-ΔDxxxLI (from UniProt A6NJI1)
